{
  "source": "patent US20170173186A9",
  "about": "“MURINE WOUND MODEL FOR TESTING PATHOGEN VIRUENCE AND THERAPEUTIC EFFICACY” (priority 2013, published 2017)",
  "format_in_all_cases": "in vivo, Acinetobacter baumannii",
  "key": {"[1]": {"system": "A. baumannii AB5075", "assay": "Murine dorsal wound infection model, time course histopathology of wounds (H&E)"}, "[2]": {"system": "A. baumannii AB5075", "assay": "Murine dorsal wound infection model, SEM analysis of biofilm on occlusive dressings and wound tissue"}, "[3]": {"system": "A. baumannii AB5075", "assay": "Murine dorsal wound infection model, PNA-FISH examination of AB5075 localization in wound tissue", "conditions": "Day 1", "experimental": "All procedures were performed in accordance with protocol IB02-10 that was approved by the Walter Reed Army Institute of Research (WRAIR)/Navy Medical Research Center (NMRC) Institutional Animal Care and Use Committee (Silver Spring, Md.). Mice received 150 mg/kg and 100 mg/kg cyclophosphamide intraperitoneal (IP) injections, before wounding and infection, on days −4 and −1, respectively (22, 24). On Day 0, the day of wounding and inoculum, mice were anesthetized with ketamine 130 mg/kg (KETASET®, Fort Dodge Animal Health, Fort Dodge, Iowa), xylazine 10 mg/kg (ANASED®, Lloyd Inc. Shenandoah, Iowa), and buprenorphine 0.05 mg/kg (Hospira Inc., Lake Forest, Ill.) injections. […]\nBeginning four hours post-inoculation, mice were treated with either rifampin at 25 mg/kg IP injection once daily, doxycycline 25 mg/kg IP injection twice daily, or an equivalent vehicle control over the course of a six day treatment period (25, 26). On Day 7 the transparent dressing was removed, treatment discontinued, and the wound monitored for closure through Day 25.\nOne mouse from each treatment group (placebo, rifampin, and doxycycline) and from representative time points (Days 1, 3, and 7) were sacrificed in order to characterize the dissemination of AB5075 within wound tissue via peptide nucleic acid fluorescence in situ hybridization (PNA-FISH) (33). […]"}},
  "note": "For at least one compound, name, drawing or mass did not settle the structure.",
  "data": [
    {"smiles": "C[C@H]1c2cccc(O)c2C(=O)C2=C(O)[C@]3(O)C(=O)C(C(N)=O)=C(O)[C@@H](N(C)C)[C@@H]3[C@@H](O)[C@@H]21", "note": "[doxycycline]", "values": [
      {"measurement": "histopathology of wound (H&E)", "setting": "[1]; Day 15", "result": "re-epithelization over the wound was observed"},
      {"measurement": "histopathology of wound (H&E)", "setting": "[1]; Day 23", "result": "signs of contractile healing and re-epithelized wound beds"},
      {"measurement": "biofilm on occlusive dressing by SEM", "setting": "[2]; Day 3 (rifampin: Days 3 or 7) post-infection", "result": "lacked the continuous substratum or higher architecture of the biofilm"},
      {"measurement": "bacteria on occlusive dressing by SEM", "setting": "[2]; one day post-infection", "result": "initial attachment was visible on occlusive dressing"},
      {"measurement": "A. baumannii cells in wound bed by Acinetobacter-specific PNA probe", "setting": "[3]", "result": "intermediate phenotype"}
    ]}
  ]
}
